{
  "sequences": {"note": "Sequences of proteins named here, by UniProt entry; tags and fusion partners are left off.", "UniProt Q13950": "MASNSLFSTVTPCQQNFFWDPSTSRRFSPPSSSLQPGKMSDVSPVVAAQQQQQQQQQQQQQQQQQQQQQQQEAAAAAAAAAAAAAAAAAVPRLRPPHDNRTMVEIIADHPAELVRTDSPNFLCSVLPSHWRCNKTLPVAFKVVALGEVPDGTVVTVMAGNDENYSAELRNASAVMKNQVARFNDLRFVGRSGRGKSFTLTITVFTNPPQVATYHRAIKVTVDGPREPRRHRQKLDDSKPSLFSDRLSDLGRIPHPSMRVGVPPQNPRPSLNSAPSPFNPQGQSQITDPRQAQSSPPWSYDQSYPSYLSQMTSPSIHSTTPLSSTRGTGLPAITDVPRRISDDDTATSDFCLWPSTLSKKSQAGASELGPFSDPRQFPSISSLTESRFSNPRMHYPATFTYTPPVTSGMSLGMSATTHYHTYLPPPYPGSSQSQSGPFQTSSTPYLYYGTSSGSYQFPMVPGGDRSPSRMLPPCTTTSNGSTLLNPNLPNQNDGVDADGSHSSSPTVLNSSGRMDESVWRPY", "UniProt Q13620": "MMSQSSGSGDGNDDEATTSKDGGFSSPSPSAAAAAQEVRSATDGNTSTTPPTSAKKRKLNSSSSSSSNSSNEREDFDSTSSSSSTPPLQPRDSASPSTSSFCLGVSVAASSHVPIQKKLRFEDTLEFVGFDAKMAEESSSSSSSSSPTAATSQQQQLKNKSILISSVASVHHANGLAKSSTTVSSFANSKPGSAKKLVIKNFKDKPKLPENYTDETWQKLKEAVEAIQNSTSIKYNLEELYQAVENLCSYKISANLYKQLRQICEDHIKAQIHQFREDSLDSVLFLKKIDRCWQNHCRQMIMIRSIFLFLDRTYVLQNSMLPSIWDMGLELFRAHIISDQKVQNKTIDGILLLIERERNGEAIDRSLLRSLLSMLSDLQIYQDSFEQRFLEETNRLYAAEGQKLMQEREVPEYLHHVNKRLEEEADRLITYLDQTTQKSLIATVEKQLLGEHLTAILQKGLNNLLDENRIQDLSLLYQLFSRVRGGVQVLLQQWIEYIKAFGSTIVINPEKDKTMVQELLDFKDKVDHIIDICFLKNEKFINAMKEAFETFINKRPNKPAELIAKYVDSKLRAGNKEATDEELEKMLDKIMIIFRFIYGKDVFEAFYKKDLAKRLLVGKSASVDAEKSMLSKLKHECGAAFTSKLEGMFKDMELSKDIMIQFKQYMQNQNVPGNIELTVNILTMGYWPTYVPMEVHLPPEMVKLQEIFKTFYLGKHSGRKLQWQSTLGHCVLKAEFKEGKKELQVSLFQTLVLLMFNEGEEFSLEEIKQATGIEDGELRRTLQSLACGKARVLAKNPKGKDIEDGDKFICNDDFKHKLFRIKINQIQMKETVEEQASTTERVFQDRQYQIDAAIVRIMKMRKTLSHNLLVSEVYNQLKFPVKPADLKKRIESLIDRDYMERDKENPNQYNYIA"},
  "source": "paper PMC9613664",
  "target": "RUNX2 (endogenous) (human (endogenous in breast cancer cells, line not named)) (UniProt Q13950)",
  "assay": "co-IP; endogenous proteins; cell extracts incubated with 2 ug antibody or normal IgG at 4 C overnight, protein A/G beads, five washes with lysis buffer, immunoblot; done with anti-RUNX2 and in reverse with antibodies against the partners",
  "note": "Results are given in words; binding and its absence hold for the method and conditions named. In cells and extracts the contact can be indirect. Some binding calls cover weakened binding; strength is not graded here.",
  "data": [
    {"substance": "CUL4B (endogenous) (from UniProt Q13620 1-913)", "values": [
      {"measurement": "binding", "result": "binds"}
    ]}
  ]
}
